Reference: the supplement of paper PMC10849652
The list shows a part of the results.

Sequences of proteins named here, by UniProt entry; tags and fusion partners are left off. A change or cut given only in a name is not applied to a line headed by its entry.
UniProt Q9Y2Z9: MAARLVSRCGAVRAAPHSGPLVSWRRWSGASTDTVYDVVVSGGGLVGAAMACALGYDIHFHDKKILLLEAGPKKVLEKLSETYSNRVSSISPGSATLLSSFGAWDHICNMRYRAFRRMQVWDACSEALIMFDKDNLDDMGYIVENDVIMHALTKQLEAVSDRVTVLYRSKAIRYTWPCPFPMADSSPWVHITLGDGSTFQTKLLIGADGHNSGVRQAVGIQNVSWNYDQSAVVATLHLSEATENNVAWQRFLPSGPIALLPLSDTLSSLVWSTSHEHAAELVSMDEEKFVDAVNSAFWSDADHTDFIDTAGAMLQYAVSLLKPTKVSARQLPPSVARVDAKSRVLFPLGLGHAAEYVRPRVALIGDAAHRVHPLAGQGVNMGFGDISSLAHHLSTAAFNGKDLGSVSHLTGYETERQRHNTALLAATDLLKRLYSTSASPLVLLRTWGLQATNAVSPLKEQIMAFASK
UniProt Q49B96: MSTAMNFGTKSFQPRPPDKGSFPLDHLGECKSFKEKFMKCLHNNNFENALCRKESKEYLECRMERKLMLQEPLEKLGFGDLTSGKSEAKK
UniProt Q9UFF9, whole entry, looked up: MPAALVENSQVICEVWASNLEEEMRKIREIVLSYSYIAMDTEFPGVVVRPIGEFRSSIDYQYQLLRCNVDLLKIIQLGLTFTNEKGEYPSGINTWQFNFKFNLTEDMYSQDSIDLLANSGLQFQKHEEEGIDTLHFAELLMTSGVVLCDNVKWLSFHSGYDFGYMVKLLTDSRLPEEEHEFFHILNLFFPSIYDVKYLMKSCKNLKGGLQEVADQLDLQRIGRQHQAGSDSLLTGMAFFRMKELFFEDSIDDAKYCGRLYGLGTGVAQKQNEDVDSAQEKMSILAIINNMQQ
UniProt O95628: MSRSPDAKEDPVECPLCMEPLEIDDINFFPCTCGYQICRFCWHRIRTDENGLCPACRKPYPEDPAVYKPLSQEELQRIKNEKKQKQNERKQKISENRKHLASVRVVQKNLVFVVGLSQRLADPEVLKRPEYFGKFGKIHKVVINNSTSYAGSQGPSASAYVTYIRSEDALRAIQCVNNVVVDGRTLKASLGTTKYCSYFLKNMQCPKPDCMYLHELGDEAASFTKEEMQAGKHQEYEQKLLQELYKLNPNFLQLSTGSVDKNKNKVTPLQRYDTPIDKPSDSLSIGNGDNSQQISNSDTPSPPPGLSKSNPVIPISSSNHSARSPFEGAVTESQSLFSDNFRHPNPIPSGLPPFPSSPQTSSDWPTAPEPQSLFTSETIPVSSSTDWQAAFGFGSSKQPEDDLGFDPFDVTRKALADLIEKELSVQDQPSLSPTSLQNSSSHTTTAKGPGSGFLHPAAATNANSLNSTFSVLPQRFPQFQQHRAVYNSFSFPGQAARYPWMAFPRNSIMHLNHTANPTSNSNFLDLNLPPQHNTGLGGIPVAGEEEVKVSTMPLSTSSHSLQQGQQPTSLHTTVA
UniProt P31327: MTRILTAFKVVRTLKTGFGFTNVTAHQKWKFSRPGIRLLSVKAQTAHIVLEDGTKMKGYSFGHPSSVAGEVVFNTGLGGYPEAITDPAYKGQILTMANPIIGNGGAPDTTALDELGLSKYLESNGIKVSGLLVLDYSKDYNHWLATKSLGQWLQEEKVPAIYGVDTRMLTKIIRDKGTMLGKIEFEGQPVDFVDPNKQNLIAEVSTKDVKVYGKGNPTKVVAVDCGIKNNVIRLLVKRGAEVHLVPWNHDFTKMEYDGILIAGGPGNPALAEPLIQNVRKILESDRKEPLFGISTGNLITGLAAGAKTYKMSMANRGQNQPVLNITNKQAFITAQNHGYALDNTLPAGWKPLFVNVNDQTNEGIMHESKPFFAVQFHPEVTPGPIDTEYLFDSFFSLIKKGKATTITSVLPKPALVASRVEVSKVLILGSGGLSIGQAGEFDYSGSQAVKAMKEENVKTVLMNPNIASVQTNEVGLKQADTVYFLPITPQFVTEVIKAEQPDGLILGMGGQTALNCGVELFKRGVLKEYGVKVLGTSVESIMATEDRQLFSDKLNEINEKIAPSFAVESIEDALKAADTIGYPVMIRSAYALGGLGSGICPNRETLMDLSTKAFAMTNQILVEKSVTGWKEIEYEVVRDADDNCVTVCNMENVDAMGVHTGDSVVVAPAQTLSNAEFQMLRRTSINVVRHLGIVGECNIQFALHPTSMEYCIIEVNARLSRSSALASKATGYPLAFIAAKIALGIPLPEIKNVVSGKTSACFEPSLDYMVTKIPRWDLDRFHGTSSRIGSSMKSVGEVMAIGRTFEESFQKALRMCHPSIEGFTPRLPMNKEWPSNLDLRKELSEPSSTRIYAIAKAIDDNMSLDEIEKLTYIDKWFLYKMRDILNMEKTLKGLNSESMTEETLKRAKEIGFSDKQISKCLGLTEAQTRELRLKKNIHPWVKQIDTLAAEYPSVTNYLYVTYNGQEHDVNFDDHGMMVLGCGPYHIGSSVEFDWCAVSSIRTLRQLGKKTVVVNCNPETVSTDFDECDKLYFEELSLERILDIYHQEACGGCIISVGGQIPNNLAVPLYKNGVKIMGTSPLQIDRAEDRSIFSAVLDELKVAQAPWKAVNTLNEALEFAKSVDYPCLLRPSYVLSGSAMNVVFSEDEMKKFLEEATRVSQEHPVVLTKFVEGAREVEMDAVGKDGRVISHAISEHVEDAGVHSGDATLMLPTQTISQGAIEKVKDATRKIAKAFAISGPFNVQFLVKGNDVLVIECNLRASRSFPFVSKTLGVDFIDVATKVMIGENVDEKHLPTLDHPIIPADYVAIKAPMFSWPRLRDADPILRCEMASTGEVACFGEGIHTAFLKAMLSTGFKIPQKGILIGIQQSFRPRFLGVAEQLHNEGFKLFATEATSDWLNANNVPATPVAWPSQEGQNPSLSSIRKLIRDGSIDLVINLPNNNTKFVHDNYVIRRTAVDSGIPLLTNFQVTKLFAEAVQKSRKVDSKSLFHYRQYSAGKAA
UniProt A4D0V7: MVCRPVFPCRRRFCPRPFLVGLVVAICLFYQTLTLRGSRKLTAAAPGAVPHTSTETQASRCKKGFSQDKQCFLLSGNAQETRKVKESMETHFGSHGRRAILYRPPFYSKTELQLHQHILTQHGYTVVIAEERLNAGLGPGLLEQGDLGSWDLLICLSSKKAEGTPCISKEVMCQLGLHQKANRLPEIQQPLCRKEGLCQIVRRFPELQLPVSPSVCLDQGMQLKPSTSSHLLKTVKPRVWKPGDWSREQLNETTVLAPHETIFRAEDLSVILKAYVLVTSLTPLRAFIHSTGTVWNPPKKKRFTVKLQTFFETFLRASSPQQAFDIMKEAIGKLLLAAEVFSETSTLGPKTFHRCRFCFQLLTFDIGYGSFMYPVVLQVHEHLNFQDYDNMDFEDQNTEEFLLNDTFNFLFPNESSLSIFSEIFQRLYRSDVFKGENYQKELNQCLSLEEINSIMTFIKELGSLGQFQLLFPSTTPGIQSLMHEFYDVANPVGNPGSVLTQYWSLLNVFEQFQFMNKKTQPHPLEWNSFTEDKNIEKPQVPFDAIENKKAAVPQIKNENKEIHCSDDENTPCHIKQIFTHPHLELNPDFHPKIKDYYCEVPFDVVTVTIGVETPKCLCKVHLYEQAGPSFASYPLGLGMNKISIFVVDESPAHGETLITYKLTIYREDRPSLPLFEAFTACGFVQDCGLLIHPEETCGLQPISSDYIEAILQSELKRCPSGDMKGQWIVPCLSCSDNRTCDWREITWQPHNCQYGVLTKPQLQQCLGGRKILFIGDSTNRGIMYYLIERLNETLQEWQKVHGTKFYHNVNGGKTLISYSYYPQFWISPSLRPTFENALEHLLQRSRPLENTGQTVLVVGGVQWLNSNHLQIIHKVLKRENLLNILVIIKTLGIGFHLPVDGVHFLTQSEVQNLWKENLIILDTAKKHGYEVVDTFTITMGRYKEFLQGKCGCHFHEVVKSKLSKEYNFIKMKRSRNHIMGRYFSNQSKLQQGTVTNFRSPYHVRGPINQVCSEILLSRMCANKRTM
UniProt Q9Y2R0: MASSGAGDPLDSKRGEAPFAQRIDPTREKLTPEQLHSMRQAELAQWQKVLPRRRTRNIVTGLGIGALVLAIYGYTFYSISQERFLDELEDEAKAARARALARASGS
UniProt Q9NZJ6: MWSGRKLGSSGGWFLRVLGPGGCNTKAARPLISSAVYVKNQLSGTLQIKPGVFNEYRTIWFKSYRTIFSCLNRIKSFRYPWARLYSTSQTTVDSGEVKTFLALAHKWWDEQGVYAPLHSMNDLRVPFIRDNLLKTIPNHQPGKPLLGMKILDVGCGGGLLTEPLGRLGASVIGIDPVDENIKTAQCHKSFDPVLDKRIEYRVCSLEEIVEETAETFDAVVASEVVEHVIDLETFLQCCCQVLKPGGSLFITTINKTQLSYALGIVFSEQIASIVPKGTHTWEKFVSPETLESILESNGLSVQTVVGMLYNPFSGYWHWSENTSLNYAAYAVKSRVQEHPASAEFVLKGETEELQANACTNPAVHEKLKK
UniProt Q9BU20: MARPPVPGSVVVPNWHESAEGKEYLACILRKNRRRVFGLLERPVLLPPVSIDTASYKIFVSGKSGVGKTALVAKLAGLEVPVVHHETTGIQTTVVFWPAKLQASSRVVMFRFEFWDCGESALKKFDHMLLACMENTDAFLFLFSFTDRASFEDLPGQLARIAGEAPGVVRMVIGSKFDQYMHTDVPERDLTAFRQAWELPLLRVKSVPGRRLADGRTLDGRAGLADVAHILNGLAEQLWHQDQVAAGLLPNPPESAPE

Columns and labels:
Assay in all cases: log2 fold change, soluble protein after heating vs DMSO (PISA); higher = thermal stabilisation; K562 lysate, 10 uM; active = over 0.2 and 3.5 SD of the protein, either way, in both replicates (recomputed)
vemurafenib = compound: CCCS(=O)(=O)Nc1ccc(F)c(C(=O)c2c[nH]c3ncc(-c4ccc(Cl)cc4)cc23)c1F [vemurafenib]
Outline: (§1)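 Dounce homogenisation of K562 pellets in PBS pH 7.4 with 1 mM MgCl2 produced a crude extract, used at 1 mg/mL protein. Exposure to 10 μM compound lasted 30 min, and aliquots were then heated for 3 min across 48°C-58°C, pooled and brought to 0.5% NP-40 at 4°C. The supernatant after 21,000xg for 90 min was quantified by TMTpro 16plex LC-MS/MS with channel sums equalised. Duplicate values are given as log-two fold change in thermal stability relative to solvent controls.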

[1] = compound: CCCS(=O)(=O)Nc1ccc(F)c(C(=O)c2c[nH]c3ncc(Cl)cc23)c1F
Outline: as §1

barasertib = compound: CCN(CCCOc1ccc2c(Nc3cc(CC(=O)Nc4cccc(F)c4)[nH]n3)ncnc2c1)CCOP(=O)(O)O [barasertib]
Outline: as §1

[2] = compound: CC[C@@H]1C(=O)N(C)c2cnc(Nc3ccc(C(=O)NC4CCN(C)CC4)cc3OC)nc2N1C1CCCC1
Outline: as §1

volasertib = compound: CC[C@@H]1C(=O)N(C)c2cnc(Nc3ccc(C(=O)N[C@H]4CC[C@H](N5CCN(CC6CC6)CC5)CC4)cc3OC)nc2N1C(C)C [volasertib]
Outline: as §1

[3] = compound: CCn1c(C(=O)N(C2CC2)C2CC2)cc2c3c(ncn3C)c(Nc3cc(C)n(C)n3)nc21
Outline: as §1

[4] = compound: CCn1cc(-c2ccnc3[nH]c(-c4cccc(CN(C)C)c4)cc23)c(-c2ccc(NC(=O)N(C)C)cc2)n1
Outline: as §1

[5] = compound: CN1CCC(CNc2ccc3ncc(-c4cccc(OC(F)(F)F)c4)n3n2)CC1
Outline: as §1

saracatinib = compound: CN1CCN(CCOc2cc(OC3CCOCC3)c3c(Nc4c(Cl)ccc5c4OCO5)ncnc3c2)CC1 [saracatinib]
Outline: as §1

sotrastaurin = compound: CN1CCN(c2nc(C3=C(c4c[nH]c5ccccc45)C(=O)NC3=O)c3ccccc3n2)CC1 [sotrastaurin]
Outline: as §1

alvocidib = compound: CN1CC[C@H](c2c(O)cc(O)c3c(=O)cc(-c4ccccc4Cl)oc23)[C@H](O)C1 [alvocidib]
Outline: as §1

Tubastatin A = compound: CN1CCc2c(c3ccccc3n2Cc2ccc(C(=O)NO)cc2)C1 [Tubastatin A]
Outline: as §1

[6] = compound: CNC(=O)C1=CC=CC=C1NC2=NC(=NC=C2Cl)NC3=C(C=C(C=C3)N4CCOCC4)OC
Outline: as §1

defactinib = compound: CNC(=O)c1ccc(Nc2ncc(C(F)(F)F)c(NCc3nccnc3N(C)S(C)(=O)=O)n2)cc1 [defactinib]
Outline: as §1

[7] = compound: CNc1nc(-c2ccc3c(N)n[nH]c3c2)cc(N2C[C@@H](C(=O)NC3CCCCC3)CC[C@H]2C)n1
Outline: as §1

encorafenib = compound: COC(=O)N[C@@H](C)CNc1nccc(-c2cn(C(C)C)nc2-c2cc(Cl)cc(NS(C)(=O)=O)c2F)n1 [encorafenib]
Outline: as §1

[8] = compound: COC(=O)[C@H](CCSC)NC(=O)C1=C(C=C(C=C1)NC[C@H](CS)N)C2=CC=CC=C2
Outline: as §1

alisertib = compound: COc1cc(Nc2ncc3c(n2)-c2ccc(Cl)cc2C(c2c(F)cccc2OC)=NC3)ccc1C(=O)O [alisertib]
Outline: as §1

[9] = compound: COc1cc2nc(-c3cc(F)ccc3O)nc(N[C@@H]3CNC[C@H]3C(C)(C)O)c2cc1OC
Outline: as §1

gefitinib = compound: COc1cc2ncnc(Nc3ccc(F)c(Cl)c3)c2cc1OCCCN1CCOCC1 [gefitinib]
Outline: as §1

Row | Target | log2 fold change (vemurafenib) | log2 fold change [1] | log2 fold change (barasertib) | log2 fold change [2] | log2 fold change (volasertib) | log2 fold change [3] | log2 fold change [4] | log2 fold change [5] | log2 fold change (saracatinib) | log2 fold change (sotrastaurin) | log2 fold change (alvocidib) | log2 fold change (Tubastatin A) | log2 fold change [6] | log2 fold change (defactinib) | log2 fold change [7] | log2 fold change (encorafenib) | log2 fold change [8] | log2 fold change (alisertib) | log2 fold change [9] | log2 fold change (gefitinib)
1 | COQ6 (UniProt Q9Y2Z9) | inactive: -0.011 | inactive: 0.011 | inactive: -0.034 | inactive: 0.019 | inactive: -0.01 | inactive: -0.006 | inactive: 0.014 | inactive: 0.012 | inactive: 0.006 | inactive: -0.002 | inactive: -0.042 | inactive: -0.063 | inactive: 0.039 | inactive: 0.071 | inactive: 0.006 | inactive: -0.082 | inactive: 0.088 | inactive: -0.029 | inactive: 0.004 | inactive: -0.063
2 | COX19 (UniProt Q49B96) | inactive: 0.01 | inactive: -0.011 | inactive: 0.127 | inactive: 0.035 | inactive: 0.019 | inactive: -0.037 | inactive: 0.015 | inactive: 0.011 | inactive: 0.025 | inactive: 0.02 | inactive: -0.056 | inactive: 0.06 | inactive: 0.032 | inactive: 0 | inactive: 0.047 | inactive: 0.001 | inactive: -0.066 | inactive: -0.015 | inactive: -0.013 | inactive: -0.029
3 | CNOT8 (UniProt Q9UFF9) | inactive: 0.029 | inactive: -0.064 | inactive: 0.074 | inactive: 0.015 | inactive: -0.064 | inactive: 0.048 | inactive: 0.003 | inactive: -0.152 | inactive: 0.054 | inactive: 0.028 | inactive: 0 | inactive: -0.001 | inactive: -0.013 | inactive: -0.005 | inactive: -0.087 | inactive: 0.035 | inactive: -0.045 | inactive: 0.07 | inactive: 0.013 | inactive: -0.02
4 | CNOT4 isoform 9 (UniProt O95628) | inactive: 0.027 | inactive: 0.014 | inactive: -0.195 | inactive: 0.028 | inactive: -0.03 | inactive: 0.015 | active: -1.23 | inactive: 0.22 | inactive: 0.1 | inactive: 0.075 | inactive: -0.351 | inactive: 0.04 | inactive: -0.087 | inactive: -0.085 | inactive: -0.047 | inactive: 0.037 | inactive: 0.003 | – | inactive: 0.002 | –
5 | CPS1 isoform 3 (UniProt P31327) | inactive: 0.119 | inactive: 0.072 | inactive: -0.01 | inactive: 0.073 | inactive: 0.087 | inactive: 0.048 | inactive: -0.037 | inactive: 0.012 | inactive: 0.061 | inactive: -0.022 | inactive: -0.022 | inactive: 0.01 | inactive: 0.685 | inactive: -0.033 | inactive: 0.113 | inactive: 0.014 | inactive: -0.042 | inactive: -0.051 | inactive: 0.222 | inactive: -0.046
6 | CPED1 (UniProt A4D0V7) | inactive: 0.036 | inactive: 0.053 | inactive: -0.013 | inactive: 0.033 | inactive: -0.001 | inactive: 0.014 | inactive: -0.026 | inactive: 0.107 | inactive: -0.081 | inactive: -0.03 | inactive: -0.014 | inactive: 0.025 | inactive: 0.01 | inactive: -0.036 | inactive: 0.152 | inactive: 0.054 | inactive: 0.041 | inactive: 0.012 | inactive: 0.118 | inactive: -0.072
7 | COA3 (UniProt Q9Y2R0) | inactive: -0.084 | inactive: -0.023 | inactive: 0.075 | inactive: 0.105 | inactive: 0.024 | inactive: 0.017 | inactive: -0.052 | inactive: -0.001 | inactive: 0.018 | inactive: 0.004 | inactive: -0.058 | inactive: 0.048 | inactive: 0.035 | inactive: 0.06 | inactive: -0.09 | inactive: 0.063 | inactive: -0.108 | inactive: 0 | inactive: 0.002 | inactive: -0.024
8 | COQ3 (UniProt Q9NZJ6) | inactive: 0.016 | inactive: 0.006 | inactive: -0.029 | inactive: 0.005 | inactive: -0.023 | inactive: -0.036 | inactive: -0.064 | inactive: 0.031 | – | – | inactive: 0.002 | inactive: -0.066 | inactive: 0.031 | inactive: -0.011 | – | inactive: 0.076 | inactive: -0.101 | inactive: 0.05 | inactive: 0.019 | inactive: 0.017
9 | CPLANE2 (UniProt Q9BU20) | – | – | – | – | – | inactive: -0.016 | – | – | – | inactive: 0.108 | – | inactive: 0.047 | inactive: -0.153 | – | – | – | – | – | – | –

At a glance, some entries already given.
Row | Target | log2 fold change (vemurafenib) | log2 fold change [1] | log2 fold change (barasertib) | log2 fold change [2] | log2 fold change (volasertib) | log2 fold change [3] | log2 fold change [4] | log2 fold change [5] | log2 fold change (saracatinib) | log2 fold change (sotrastaurin) | log2 fold change (alvocidib) | log2 fold change (Tubastatin A) | log2 fold change [6] | log2 fold change (defactinib) | log2 fold change [7] | log2 fold change (encorafenib) | log2 fold change [8] | log2 fold change (alisertib) | log2 fold change [9] | log2 fold change (gefitinib)
7 | COA3 (UniProt Q9Y2R0) | inactive: -0.084 | inactive: -0.023 | inactive: 0.075 | inactive: 0.105 | inactive: 0.024 | inactive: 0.017 | inactive: -0.052 | inactive: -0.001 | inactive: 0.018 | inactive: 0.004 | inactive: -0.058 | inactive: 0.048 | inactive: 0.035 | inactive: 0.06 | inactive: -0.09 | inactive: 0.063 | inactive: -0.108 | inactive: 0 | inactive: 0.002 | inactive: -0.024
8 | COQ3 (UniProt Q9NZJ6) | inactive: 0.016 | inactive: 0.006 | inactive: -0.029 | inactive: 0.005 | inactive: -0.023 | inactive: -0.036 | inactive: -0.064 | inactive: 0.031 | – | – | inactive: 0.002 | inactive: -0.066 | inactive: 0.031 | inactive: -0.011 | – | inactive: 0.076 | inactive: -0.101 | inactive: 0.05 | inactive: 0.019 | inactive: 0.017
